Assay results reported in PubChem BioAssay AID1671190 (National Center for Advancing Translational Sciences (NCATS), 2021).
Values joined by “and” are separate entries in the source; they are usually repeats but may differ in a detail not shown here. Equal entries are not always repeated. The whole screen tested about 580,000 compounds, of which about 6,100 (1.1%) were called active. Inconclusive results, whose numbers are uncertain, are shown with a selection of clear calls. Calls follow the shape of the dose curve; as a rule, active = well fitted inhibition curve with a large enough effect; inconclusive = small, poorly fitted or top-dose-only effect, or another doubt; inactive = no such curve, though single readings can be large or run the other way. Potencies of inconclusive entries are doubtful fits and often do not repeat.

By UniProt entry, the sequences of proteins in these tests, tags left out. Where a name states a change or a piece, a line headed by the entry shows the natural chain unless it says otherwise.
UniProt P18054: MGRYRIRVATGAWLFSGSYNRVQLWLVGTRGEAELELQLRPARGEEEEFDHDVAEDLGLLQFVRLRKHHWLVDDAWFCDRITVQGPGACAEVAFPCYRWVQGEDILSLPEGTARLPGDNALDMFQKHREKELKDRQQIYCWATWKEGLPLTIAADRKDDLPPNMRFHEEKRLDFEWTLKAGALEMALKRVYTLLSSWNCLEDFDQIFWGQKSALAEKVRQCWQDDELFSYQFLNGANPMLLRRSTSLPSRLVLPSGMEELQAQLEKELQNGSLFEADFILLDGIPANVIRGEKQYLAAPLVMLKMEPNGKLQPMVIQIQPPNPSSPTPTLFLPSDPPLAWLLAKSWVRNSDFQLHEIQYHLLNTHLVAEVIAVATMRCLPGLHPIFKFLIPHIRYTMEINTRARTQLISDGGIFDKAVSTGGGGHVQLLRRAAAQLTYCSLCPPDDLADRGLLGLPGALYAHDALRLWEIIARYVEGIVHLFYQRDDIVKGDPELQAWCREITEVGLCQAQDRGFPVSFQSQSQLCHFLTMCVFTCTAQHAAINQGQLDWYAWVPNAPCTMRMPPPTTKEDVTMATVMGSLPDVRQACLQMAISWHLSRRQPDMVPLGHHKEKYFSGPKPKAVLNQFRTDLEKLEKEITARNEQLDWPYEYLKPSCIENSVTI

Target: Polyunsaturated fatty acid lipoxygenase ALOX12 (Homo sapiens) (UniProt P18054)
Assay: Primary qHTS assay for inhibitors of human arachidonate 12S-lipoxygenase (ALOX12): Round 2
Settings: purified 12hLO, xylenol orange hydroperoxide absorbance; series mostly up to 108 µM
In short: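 Purified human 12hLO at 150 nM in 25 mM Hepes, 0.01% Triton X-100, pH 7.0, preincubated 15 min at room temperature with compound. Reaction started with 40 uM arachidonic acid, 30 min at room temperature. Hydroperoxide measured by Fe-xylenol orange, 573/405 nm absorbance ratio.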
Potency is read from the fitted curve at half-maximal effect.

SMILES	Potency
COC(=O)c1cccc(NC(=O)c2ccc3c(c2)CCC3)c1	inactive
O=c1[nH]c(=O)c2cc([N+](=O)[O-])cc([N+](=O)[O-])c2[nH]1	inactive
COC(=O)C1=C(C)OC(=O)C1(NC(=O)c1ccc(C(C)(C)C)cc1)C(F)(F)F (stereo not drawn)	inconclusive: 14.1 µM [inhibitor, full curve]
Cc1ccc(/C=C/C(=O)N2CC(C)CC(C)C2)o1 (stereo not drawn)	inconclusive: 15.8 µM [inhibitor, partial curve, poor fit]
COc1cccc(-c2cc(=O)[nH]c(Nc3nc(C)c4ccccc4n3)n2)c1	inactive
Cc1ccc(C(=O)N/N=C2/CC3CCC2(C)C3(C)C)cc1 (stereo not drawn)	inactive
C[C@@H](NCc1ccccc1)c1onc(-c2ccc(F)cc2)c1C(=O)O	inactive
c1ccc2[nH]c(-c3ccc4c(c3)CCCC4)cc2c1	inconclusive: 22.4 µM [inhibitor, partial curve]
CCOc1ccccc1CN1CCC2(CCN(C(=O)NC3CCCC3)CC2)Oc2ccccc21	inconclusive: 11.2 µM [inhibitor, partial curve, poor fit]
Nc1ncnc2c1ncn2[C@@H]1O[C@H](COP(=O)(O)CP(=O)(O)OP(=O)(O)O)[C@@H](O)[C@H]1O	inconclusive: 0.708 µM [inhibitor, partial curve, poor fit]
CCC(C(=O)NCc1ccccc1)n1c(-c2cccs2)nc2ccccc21 (stereo not drawn)	inconclusive: 35.5 µM [inhibitor, single point]
COc1ccc(C2=C(O)C(=O)N(Cc3cccnc3)C2c2ccccc2F)cc1 (stereo not drawn)	inconclusive: 0.447 µM [inhibitor, full curve, poor fit]
O=C(CN1CCC(c2nc3ccccc3s2)CC1)NC(=O)Nc1ccc2c(c1)OCCO2	inconclusive: 63.1 µM [inhibitor, partial curve, poor fit]
Cc1ccc(-n2c(=S)[nH]c3c(oc4ccccc43)c2=O)cc1C	inconclusive: 50.1 µM [inhibitor, partial curve, poor fit]
COc1ccc(NC(=S)NCCSc2ccc(Cl)cc2)c(OC)c1	inconclusive: 31.6 µM [inhibitor, partial curve, poor fit]
Cc1c(CCC(=O)NCc2ccccc2)c(=O)oc2c(C)c(O)ccc12	inactive
COc1ccc(C2/C(=C(/O)c3ccccc3)C(=O)C(=O)N2CO)cc1 (stereo not drawn)	inconclusive: 44.7 µM [inhibitor, partial curve]
O=C(CCc1cccs1)N(Cc1cccnc1)C1CC1	inconclusive: 56.2 µM [inhibitor, partial curve, poor fit]
O=C(NCc1ccccn1)[C@@H]1CCCN1C(=O)[C@@H]1CCCN1C(=O)c1ccc(Cl)cc1	inconclusive: 158 µM [inhibitor, single point]
CC(C)[C@@H]1NC(=O)c2cc([N+](=O)[O-])cc(I)c2NCCC[C@@H](C(N)=O)NC(=O)[C@H](CO)NC1=O	inconclusive: 44.7 µM [inhibitor, partial curve, poor fit]
COc1ccc(/C=C/C(=O)N2CCN(C)CC2)cc1OC	inconclusive: 79.4 µM [inhibitor, single point]
O=S(=O)(Nc1cccc(-c2cn3ccccc3n2)c1)c1ccc(-c2ccccc2)cc1	inactive
O=C(NCc1ccc(C(=O)N2CCCCC2)cc1)C1NCCc2[nH]cnc21 (stereo not drawn)	inconclusive: 5.01 µM [inhibitor, full curve, poor fit]

SMILES	Potency
O=C(Cn1nnc(-c2ccccc2)n1)N1CCCC1c1ccc2c(c1)OCCCO2 (stereo not drawn)	inactive
Cc1nc(NC(=O)c2ccccc2)sc1-c1csc(N)n1	inconclusive: 39.8 µM [inhibitor, partial curve, poor fit]
Cc1noc(C)c1-c1cc2cc(CO)oc2c(-c2ccc(F)c(Cl)c2)n1	inconclusive: 100 µM [inhibitor, partial curve, poor fit]
Cc1cc(=O)[nH]c(N/N=C/C(C)c2ccccc2)n1 (stereo not drawn)	inconclusive: 39.8 µM [inhibitor, single point]
C/C(=N/NC(=O)c1cc(O)c(O)c(O)c1)c1ccc([N+](=O)[O-])cc1	inconclusive: 44.7 µM [inhibitor, partial curve, poor fit]
COc1ccc(CNC(=O)CC2CCN(C(=O)c3ccc4nc(-c5ccccc5)oc4c3)CC2)cc1	inactive
O=C(NC(=S)Nc1ccc(S(=O)(=O)N2CCCC2)cc1)c1cccs1	inconclusive: 31.6 µM [inhibitor, partial curve]
O=C(C=Cc1ccco1)c1cc(Cl)ccc1O	inconclusive: 39.8 µM [inhibitor, partial curve, poor fit]
COc1cc(S(=O)(=O)N2CCN(Cc3ccc4c(c3)OCO4)CC2)ccc1NC(C)=O	inconclusive: 112 µM [inhibitor, partial curve, poor fit]
Clc1ccc(Cn2ncc3c(NCc4ccccc4)ncnc32)cc1	inactive
CCn1c(=NC(=O)CSCC(=O)Nc2nccs2)sc2ccccc21	inconclusive: 14.1 µM [inhibitor, partial curve, poor fit]
COc1ccccc1NC(=O)c1sc(NC(=O)c2ccco2)c(C#N)c1C	inactive
OCC1(Cc2ccc(F)cc2F)CCCN(Cc2ccc(Cl)cc2)C1 (stereo not drawn)	inconclusive: 39.8 µM [inhibitor, partial curve, poor fit]
Cc1cc2nc(-c3ccco3)c(CC(C)(C)C)n2c(C)c1Br	inconclusive: 100 µM [inhibitor, partial curve, poor fit]
CCC(CO)Nc1nc(-c2ccco2)c2c(c1C#N)CCCC2 (stereo not drawn)	inconclusive: 39.8 µM [inhibitor, partial curve, poor fit]
Cc1ccccc1C(OCCN(C)C)c1ccccc1 (stereo not drawn)	inconclusive: 1.26 µM [inhibitor, full curve, poor fit]
CCCN1C(=O)c2cc(C(=O)O)ccc2C1O (stereo not drawn)	inconclusive: 141 µM [inhibitor, single point]
COc1ccc(N2CCN(C(=O)C(=O)c3cn(CC(=O)N4CCOCC4)c4ccccc34)CC2)cc1	inactive
O=C1Nc2ccccc2CCC1n1nc(-c2ccc(Cl)cc2)ccc1=O (stereo not drawn)	inactive
O=C(c1ccc(-c2ccccc2)cc1)N1CCN(c2nc3ccccc3o2)CC1	inactive
CCOc1cc(/C=C2\NC(=O)NC2=O)ccc1OCc1ccc(C(=O)O)cc1	inconclusive: 2.24 µM [inhibitor, full curve, poor fit]
Brc1cccc(-c2nc(-c3cccnc3)no2)c1	inactive
Nc1nc(NCCc2ccc(F)cc2)c2[nH]cnc2n1	inactive

No new results follow: entries from further up.
SMILES	Potency
O=C(C=Cc1ccco1)c1cc(Cl)ccc1O	inconclusive: 39.8 µM [inhibitor, partial curve, poor fit]
COc1cc(S(=O)(=O)N2CCN(Cc3ccc4c(c3)OCO4)CC2)ccc1NC(C)=O	inconclusive: 112 µM [inhibitor, partial curve, poor fit]
Clc1ccc(Cn2ncc3c(NCc4ccccc4)ncnc32)cc1	inactive
CCn1c(=NC(=O)CSCC(=O)Nc2nccs2)sc2ccccc21	inconclusive: 14.1 µM [inhibitor, partial curve, poor fit]
COc1ccccc1NC(=O)c1sc(NC(=O)c2ccco2)c(C#N)c1C	inactive
OCC1(Cc2ccc(F)cc2F)CCCN(Cc2ccc(Cl)cc2)C1 (stereo not drawn)	inconclusive: 39.8 µM [inhibitor, partial curve, poor fit]
Cc1cc2nc(-c3ccco3)c(CC(C)(C)C)n2c(C)c1Br	inconclusive: 100 µM [inhibitor, partial curve, poor fit]
CCC(CO)Nc1nc(-c2ccco2)c2c(c1C#N)CCCC2 (stereo not drawn)	inconclusive: 39.8 µM [inhibitor, partial curve, poor fit]
Cc1ccccc1C(OCCN(C)C)c1ccccc1 (stereo not drawn)	inconclusive: 1.26 µM [inhibitor, full curve, poor fit]
CCCN1C(=O)c2cc(C(=O)O)ccc2C1O (stereo not drawn)	inconclusive: 141 µM [inhibitor, single point]
COc1ccc(N2CCN(C(=O)C(=O)c3cn(CC(=O)N4CCOCC4)c4ccccc34)CC2)cc1	inactive
O=C1Nc2ccccc2CCC1n1nc(-c2ccc(Cl)cc2)ccc1=O (stereo not drawn)	inactive
O=C(c1ccc(-c2ccccc2)cc1)N1CCN(c2nc3ccccc3o2)CC1	inactive
CCOc1cc(/C=C2\NC(=O)NC2=O)ccc1OCc1ccc(C(=O)O)cc1	inconclusive: 2.24 µM [inhibitor, full curve, poor fit]
Brc1cccc(-c2nc(-c3cccnc3)no2)c1	inactive
Nc1nc(NCCc2ccc(F)cc2)c2[nH]cnc2n1	inactive

Additional compounds.

SMILES	Potency
COc1cccc(CNC(=O)[C@H](CCSC)NC(=O)N2CCn3c2nc2ccccc23)c1	inactive
CCC(=O)c1ccc(OCC(=O)Nc2cc(S(=O)(=O)N3CCCCC3)ccc2N2CCN(CC)CC2)cc1	inconclusive: 44.7 µM [inhibitor, partial curve, poor fit]
O=C(/C=C/c1cccs1)Nc1scc(-c2ccccc2)c1C(=O)O	active: 44.7 µM
C=C(C)CN(CC)C(=O)Cn1cnc2c(oc3ccccc32)c1=O	inconclusive: 79.4 µM [inhibitor, partial curve, poor fit]
O=C1c2ccc(Oc3ccc4c(c3)C(=O)N(CCCO)C4=O)cc2C(=O)N1CCCO	inconclusive: 112 µM [inhibitor, single point]
CCCC12CN3CC(C)(CN(C1)C3c1cc(Br)ccc1OC)C2=O (stereo not drawn)	inactive
Cc1cc2oc(C(=O)NCC(c3ccco3)N3CCOCC3)c(C)c2cc1C (stereo not drawn)	inconclusive: 15.8 µM [inhibitor, full curve, poor fit]
Cc1cccc(-n2cnc(C(=O)N3CCN(C)CC3)c2)n1	inactive
O=C(CCN1C(=O)/C(=C/c2ccc(Cl)cc2)SC1=S)Nc1cccc(C(=O)O)c1	inactive
N#Cc1ccc(CN2CC3CCC(C2)N3c2ccc(C(F)(F)F)cc2)cc1	inconclusive: 39.8 µM [inhibitor, full curve]
Cc1ccc2c(cnn2C(=O)CCC(=O)NCc2cccc(Cl)c2)c1	inactive
CN1C(=O)N(C)C2(c3ccccc3)NC(=O)NC12c1ccccc1 (stereo not drawn)	inactive
Cc1cccc(CNc2ccnc(-c3ccccc3C(F)(F)F)n2)c1	inconclusive: 22.4 µM [inhibitor, partial curve, poor fit]
O=C(Nc1nc2ccccc2s1)c1ccccc1[N+](=O)[O-]	inactive
Cc1ccccc1OCCn1cnc2c(N)ncnc21	inactive
COc1ccc(NC(=O)CN(C)C(=O)c2ccc(-c3ccc(Cl)cc3)o2)cc1	inconclusive: 39.8 µM [inhibitor, partial curve, poor fit]
Cc1ccc2c(CSc3nc4ccccc4c(=O)n3CCCO)cc(=O)oc2c1C	inconclusive: 0.199 µM [inhibitor, full curve, poor fit]
O=C(c1cc(-c2ccc(O)cc2)n[nH]1)N1CCCC(CCc2ccc(F)cc2)C1 (stereo not drawn)	inactive
COC(=O)C1=C(C)NC(C)=C([N+](=O)[O-])[C@@H]1c1ccccc1C(F)(F)F	inactive and inconclusive: 70.8 µM [inhibitor, single point]
O=C(CSc1nc(-c2ccccc2)nc2cc(=O)[nH]n12)Nc1ccccc1F	inactive
Cn1c(=O)c2c(c3ccccc31)OC(=O)CC2c1c[nH]c2ccccc12 (stereo not drawn)	inconclusive: 25.1 µM [inhibitor, partial curve, poor fit]
CCOc1ccc2[nH]c3c(NCCCOC)ncnc3c2c1	inactive
